This passage reports step yield and crude yield results from patent US4784988A (Spa Societa' Prodotti Antibiotici S.p.A., priority 1985, dated 1988).

The nature of the series: general procedure: Boc solid-phase peptide synthesis; BOC-amino acid p-nitrophenyl esters; N-hydroxysuccinimide esters.

HELM strings list residues between dots; [ac] is acetyl, [am] amide, other brackets name non-standard units.

On to NH2 -Gln-Ala-Thr-Asn-Arg-COOH, for which the step yield result (late stage modification step) is “Yield 78%”.
Same read-out and setting: the result for “TFA NH2 -Ala-(O-benzyl)Thr-Asn-(Nω -nitro)Arg benzyl ester” reads “Yield=98.9%”.
Consider “TFA.NH2 -Gln-Ala-(O-benzyl)Thr-Asn-(Nω -nitro)Arg benzyl ester”, for which, for the setting “late stage modification step”, the step yield entry was “Yield 100%”.
As to “BOC-Gln-Ala-(O-benzyl)Thr-Asn-(Nω -nitro)Arg benzyl ester”, for the setting “coupling step”, the step yield result is reported as “yield 91.7%”.
Still for that read-out and setting: the result for “BOC-Ala-(O-benzyl)Thr-Asn-(Nω -nitro)Arg benzyl ester” reads “yield 97.4%”.
As for PEPTIDE1{N.T.D.G.S.T.D.Y}$$$$V2.0, under “whole synthesis, overall, calculated on the first amino acid condensed”, the crude yield is given as 65%.
